Data published in PMC10781680.
Results are given in words; binding and its absence hold for the method and conditions named. In cells and extracts the contact can be indirect. A result given as binding can be weak or reduced; the word gives no strength.

biological target: T1, PHLPP2 (endogenous) (human (endogenous in HepG2)) (UniProt Q6ZVD8); assay: co-IP; HepG2 cells transfected with Myc-tagged TRIM22 Wt or Muts (ΔRING, ΔBBox, ΔCC, ΔSPRY); IP (antibody not told) and Western blot
T1 sequence: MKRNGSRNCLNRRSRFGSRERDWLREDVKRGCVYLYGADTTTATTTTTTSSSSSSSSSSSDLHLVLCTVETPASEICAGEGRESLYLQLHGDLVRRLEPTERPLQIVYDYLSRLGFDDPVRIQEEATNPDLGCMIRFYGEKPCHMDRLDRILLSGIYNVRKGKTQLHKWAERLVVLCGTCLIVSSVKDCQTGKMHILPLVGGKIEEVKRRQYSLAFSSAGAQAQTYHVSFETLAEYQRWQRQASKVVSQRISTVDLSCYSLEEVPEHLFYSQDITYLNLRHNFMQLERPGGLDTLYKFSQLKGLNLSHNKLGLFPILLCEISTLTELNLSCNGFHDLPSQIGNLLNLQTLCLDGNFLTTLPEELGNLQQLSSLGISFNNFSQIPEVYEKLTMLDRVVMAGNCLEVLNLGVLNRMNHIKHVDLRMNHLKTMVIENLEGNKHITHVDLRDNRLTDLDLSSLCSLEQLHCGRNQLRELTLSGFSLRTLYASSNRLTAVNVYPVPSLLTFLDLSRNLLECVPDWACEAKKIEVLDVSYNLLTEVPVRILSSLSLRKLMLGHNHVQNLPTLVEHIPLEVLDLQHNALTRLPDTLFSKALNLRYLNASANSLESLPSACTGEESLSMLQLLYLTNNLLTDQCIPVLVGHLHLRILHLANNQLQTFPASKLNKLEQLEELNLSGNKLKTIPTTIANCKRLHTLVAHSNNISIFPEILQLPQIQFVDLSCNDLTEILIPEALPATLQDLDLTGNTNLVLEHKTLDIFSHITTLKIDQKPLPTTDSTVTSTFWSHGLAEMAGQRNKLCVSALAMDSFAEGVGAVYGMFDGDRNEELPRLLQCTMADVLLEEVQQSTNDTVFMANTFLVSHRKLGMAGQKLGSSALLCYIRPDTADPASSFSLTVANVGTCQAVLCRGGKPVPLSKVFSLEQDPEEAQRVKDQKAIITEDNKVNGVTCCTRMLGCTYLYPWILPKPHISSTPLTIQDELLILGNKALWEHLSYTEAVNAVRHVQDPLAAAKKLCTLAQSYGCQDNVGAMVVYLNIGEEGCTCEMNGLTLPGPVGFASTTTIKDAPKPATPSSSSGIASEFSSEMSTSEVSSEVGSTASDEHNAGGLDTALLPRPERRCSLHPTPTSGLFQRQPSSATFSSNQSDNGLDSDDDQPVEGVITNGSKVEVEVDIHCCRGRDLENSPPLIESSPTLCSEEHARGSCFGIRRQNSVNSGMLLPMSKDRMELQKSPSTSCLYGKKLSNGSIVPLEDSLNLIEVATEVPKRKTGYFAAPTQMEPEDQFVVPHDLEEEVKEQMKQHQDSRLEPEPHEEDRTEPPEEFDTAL

| binding | Substance |
| --- | --- |
| binds | TRIM22 ΔCC (Myc-tagged) (domain or fragment) |
| binds | TRIM22 ΔBBox (Myc-tagged) (domain or fragment) |
| binds | TRIM22 ΔRING (Myc-tagged) (domain or fragment) |
